The targets with a hit were mostly taken out for another list; the other results follow. The data scatter; read single values as rough. The list shows a part of the results, in another mix than the full data.
These targets were tested with COC(=O)/C=C/c1ccccc1 [methyl cinnamate] (assay: log2 ratio of iodoacetamide-alkyne labeling of the cysteine site, DMSO over compound (competition); higher = stronger covalent engagement of the cysteine by the compound, active = 1 or more). Conditions: 500 µM; treatment time 1 h; system: HEK293T cell lysate.
Outline: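 The log2 competition ratio per cysteine is defined as mean reporter intensity in control channels over mean reporter intensity in compound channels. Lysate from HEK293T cells (2 mg/mL) received electrophile (500 µM) or vehicle for 1 h at ambient temperature, followed by iodoacetamide alkyne for 1 h. Samples were clicked to sCIP-TMT reagents, pooled, trypsin-digested overnight at 37 °C, streptavidin-enriched, acid-eluted and run on Orbitrap Eclipse LC-MS/MS with FAIMS, with quantification in FragPipe. Three replicates with duplicate channels were used, and any cysteine quantified in only one replicate was excluded.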

By UniProt entry, the sequences of proteins in these tests, tags left out. Where a name states a change or a piece, a line headed by the entry shows the natural chain unless it says otherwise.
UniProt P49588, whole entry, looked up: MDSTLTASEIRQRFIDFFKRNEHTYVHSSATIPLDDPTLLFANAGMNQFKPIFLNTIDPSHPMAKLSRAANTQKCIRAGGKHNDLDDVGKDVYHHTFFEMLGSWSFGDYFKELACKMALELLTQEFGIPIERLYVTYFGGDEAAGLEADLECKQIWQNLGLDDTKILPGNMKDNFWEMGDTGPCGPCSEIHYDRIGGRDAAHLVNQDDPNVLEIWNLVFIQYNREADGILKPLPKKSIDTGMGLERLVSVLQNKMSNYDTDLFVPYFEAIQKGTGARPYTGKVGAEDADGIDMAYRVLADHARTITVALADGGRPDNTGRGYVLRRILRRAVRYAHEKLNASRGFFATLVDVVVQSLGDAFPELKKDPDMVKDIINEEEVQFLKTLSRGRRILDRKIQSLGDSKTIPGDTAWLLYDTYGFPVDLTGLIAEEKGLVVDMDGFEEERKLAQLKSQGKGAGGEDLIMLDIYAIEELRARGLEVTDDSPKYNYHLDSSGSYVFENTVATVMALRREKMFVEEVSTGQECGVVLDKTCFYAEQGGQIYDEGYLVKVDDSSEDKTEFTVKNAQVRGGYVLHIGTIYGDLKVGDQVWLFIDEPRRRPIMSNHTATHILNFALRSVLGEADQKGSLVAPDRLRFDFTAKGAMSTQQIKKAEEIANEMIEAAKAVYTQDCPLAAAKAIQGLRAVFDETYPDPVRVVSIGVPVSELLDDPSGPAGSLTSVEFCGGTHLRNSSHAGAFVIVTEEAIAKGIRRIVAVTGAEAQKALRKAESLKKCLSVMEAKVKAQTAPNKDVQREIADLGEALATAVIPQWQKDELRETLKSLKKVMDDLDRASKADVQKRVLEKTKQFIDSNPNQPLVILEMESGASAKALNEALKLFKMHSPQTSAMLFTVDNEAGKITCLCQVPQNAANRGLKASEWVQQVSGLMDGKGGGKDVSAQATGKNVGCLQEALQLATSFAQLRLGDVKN
UniProt P46821: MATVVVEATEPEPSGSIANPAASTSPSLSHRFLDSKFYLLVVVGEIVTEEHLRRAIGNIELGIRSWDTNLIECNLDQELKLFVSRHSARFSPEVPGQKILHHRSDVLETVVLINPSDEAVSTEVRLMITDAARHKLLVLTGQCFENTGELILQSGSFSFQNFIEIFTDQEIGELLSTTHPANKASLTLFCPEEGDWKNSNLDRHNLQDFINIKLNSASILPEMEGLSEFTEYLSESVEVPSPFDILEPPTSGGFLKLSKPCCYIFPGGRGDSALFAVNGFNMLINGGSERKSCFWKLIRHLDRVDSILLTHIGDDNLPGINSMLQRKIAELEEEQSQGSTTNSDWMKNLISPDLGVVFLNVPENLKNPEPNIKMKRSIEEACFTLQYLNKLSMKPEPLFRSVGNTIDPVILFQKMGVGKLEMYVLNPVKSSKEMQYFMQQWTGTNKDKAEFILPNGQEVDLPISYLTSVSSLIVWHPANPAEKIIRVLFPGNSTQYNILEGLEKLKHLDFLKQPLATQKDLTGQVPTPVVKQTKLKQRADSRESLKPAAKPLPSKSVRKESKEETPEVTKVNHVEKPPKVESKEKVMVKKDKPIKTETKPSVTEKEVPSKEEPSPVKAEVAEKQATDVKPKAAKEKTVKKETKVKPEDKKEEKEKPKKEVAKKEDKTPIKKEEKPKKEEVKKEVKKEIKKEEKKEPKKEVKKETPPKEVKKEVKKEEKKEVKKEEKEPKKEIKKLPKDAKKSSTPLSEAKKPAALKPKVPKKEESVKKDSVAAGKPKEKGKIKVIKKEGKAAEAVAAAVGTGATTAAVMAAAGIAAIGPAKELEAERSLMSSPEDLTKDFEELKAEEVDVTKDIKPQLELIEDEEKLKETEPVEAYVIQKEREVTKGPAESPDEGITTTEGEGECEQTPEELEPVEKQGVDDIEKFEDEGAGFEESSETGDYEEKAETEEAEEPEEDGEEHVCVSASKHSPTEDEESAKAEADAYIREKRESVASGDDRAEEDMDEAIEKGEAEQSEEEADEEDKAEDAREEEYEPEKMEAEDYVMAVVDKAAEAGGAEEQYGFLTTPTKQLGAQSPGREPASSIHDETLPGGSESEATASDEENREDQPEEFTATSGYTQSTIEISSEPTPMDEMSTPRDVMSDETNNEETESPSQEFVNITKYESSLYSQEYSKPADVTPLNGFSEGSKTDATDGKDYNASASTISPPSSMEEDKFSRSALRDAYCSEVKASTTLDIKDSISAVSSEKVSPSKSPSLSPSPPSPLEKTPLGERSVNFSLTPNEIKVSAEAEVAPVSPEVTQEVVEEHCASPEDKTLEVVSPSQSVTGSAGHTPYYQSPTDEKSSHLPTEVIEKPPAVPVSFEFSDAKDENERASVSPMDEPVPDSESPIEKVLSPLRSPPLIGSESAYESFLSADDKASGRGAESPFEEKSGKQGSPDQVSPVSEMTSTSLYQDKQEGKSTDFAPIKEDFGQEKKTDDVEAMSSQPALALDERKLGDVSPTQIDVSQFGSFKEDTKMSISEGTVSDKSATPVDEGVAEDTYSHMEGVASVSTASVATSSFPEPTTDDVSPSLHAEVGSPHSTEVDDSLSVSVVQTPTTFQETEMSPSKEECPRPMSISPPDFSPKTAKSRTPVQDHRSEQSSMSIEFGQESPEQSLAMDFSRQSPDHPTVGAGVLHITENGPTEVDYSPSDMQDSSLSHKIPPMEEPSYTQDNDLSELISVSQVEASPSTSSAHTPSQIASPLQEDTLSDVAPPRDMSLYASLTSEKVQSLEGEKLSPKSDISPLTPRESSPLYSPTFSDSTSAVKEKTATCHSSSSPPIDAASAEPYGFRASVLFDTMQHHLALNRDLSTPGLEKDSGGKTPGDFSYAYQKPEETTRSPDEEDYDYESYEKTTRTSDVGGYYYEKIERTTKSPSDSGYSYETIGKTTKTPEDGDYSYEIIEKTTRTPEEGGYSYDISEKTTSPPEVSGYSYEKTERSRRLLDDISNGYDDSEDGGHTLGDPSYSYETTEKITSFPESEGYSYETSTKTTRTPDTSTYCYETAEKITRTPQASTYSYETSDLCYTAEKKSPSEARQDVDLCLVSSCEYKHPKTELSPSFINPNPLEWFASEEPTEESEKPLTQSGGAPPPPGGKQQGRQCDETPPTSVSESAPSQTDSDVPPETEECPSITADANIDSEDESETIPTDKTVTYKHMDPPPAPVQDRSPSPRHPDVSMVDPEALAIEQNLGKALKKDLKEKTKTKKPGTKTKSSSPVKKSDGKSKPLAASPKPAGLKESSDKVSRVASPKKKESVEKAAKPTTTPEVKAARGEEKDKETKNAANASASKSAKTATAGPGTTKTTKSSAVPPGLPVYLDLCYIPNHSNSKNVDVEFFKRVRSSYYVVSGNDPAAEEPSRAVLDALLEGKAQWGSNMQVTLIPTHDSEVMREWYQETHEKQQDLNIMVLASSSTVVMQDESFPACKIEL
UniProt P46060: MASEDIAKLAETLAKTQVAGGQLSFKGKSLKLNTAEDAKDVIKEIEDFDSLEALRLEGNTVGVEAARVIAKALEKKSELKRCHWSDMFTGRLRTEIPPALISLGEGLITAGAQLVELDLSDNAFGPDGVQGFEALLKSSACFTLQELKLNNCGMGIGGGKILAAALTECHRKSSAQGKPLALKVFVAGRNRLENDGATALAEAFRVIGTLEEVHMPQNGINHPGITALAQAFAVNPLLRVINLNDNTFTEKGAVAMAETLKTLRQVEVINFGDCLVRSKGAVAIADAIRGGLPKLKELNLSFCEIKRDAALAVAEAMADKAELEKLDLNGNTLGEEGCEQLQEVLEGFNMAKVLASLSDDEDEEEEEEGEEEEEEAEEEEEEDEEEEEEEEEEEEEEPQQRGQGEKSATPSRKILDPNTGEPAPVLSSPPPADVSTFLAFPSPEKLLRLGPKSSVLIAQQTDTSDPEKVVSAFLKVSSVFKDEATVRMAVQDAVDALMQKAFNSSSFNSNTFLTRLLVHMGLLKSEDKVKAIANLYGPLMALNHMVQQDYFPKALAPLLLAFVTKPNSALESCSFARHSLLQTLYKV
UniProt P45880: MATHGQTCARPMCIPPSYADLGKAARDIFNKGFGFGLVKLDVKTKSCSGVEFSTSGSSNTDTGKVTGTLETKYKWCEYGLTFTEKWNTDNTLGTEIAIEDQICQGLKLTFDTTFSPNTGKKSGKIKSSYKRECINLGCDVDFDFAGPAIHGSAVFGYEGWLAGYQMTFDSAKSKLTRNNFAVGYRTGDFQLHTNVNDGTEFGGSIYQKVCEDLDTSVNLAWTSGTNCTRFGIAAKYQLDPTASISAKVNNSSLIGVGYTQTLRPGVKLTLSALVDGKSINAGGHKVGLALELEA
UniProt P51116, whole entry, looked up: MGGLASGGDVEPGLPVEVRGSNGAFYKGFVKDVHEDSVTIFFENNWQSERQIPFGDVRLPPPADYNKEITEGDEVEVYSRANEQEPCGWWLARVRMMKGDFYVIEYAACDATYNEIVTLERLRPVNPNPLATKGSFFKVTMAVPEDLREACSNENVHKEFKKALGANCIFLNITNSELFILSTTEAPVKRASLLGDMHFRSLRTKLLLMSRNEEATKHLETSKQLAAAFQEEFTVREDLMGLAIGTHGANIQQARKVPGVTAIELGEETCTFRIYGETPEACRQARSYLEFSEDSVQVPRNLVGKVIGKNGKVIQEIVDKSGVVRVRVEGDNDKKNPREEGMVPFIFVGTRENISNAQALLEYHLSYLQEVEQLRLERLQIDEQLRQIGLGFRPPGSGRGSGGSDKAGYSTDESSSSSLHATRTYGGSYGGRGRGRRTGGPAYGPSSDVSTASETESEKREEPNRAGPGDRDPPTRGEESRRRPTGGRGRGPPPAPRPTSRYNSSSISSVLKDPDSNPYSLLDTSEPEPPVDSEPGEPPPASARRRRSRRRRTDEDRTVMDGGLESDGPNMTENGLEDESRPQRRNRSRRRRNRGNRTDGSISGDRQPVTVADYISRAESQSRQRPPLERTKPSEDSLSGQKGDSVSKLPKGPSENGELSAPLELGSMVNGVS
UniProt P48059, whole entry, looked up: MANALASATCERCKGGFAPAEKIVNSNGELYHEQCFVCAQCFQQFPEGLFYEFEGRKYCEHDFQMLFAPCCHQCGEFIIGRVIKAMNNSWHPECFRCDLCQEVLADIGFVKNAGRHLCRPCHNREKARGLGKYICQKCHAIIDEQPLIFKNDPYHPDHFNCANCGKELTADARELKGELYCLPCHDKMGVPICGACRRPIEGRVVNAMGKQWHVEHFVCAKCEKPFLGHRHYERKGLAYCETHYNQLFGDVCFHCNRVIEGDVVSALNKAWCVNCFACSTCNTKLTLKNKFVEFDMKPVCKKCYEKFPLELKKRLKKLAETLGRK
UniProt P51617, whole entry, looked up: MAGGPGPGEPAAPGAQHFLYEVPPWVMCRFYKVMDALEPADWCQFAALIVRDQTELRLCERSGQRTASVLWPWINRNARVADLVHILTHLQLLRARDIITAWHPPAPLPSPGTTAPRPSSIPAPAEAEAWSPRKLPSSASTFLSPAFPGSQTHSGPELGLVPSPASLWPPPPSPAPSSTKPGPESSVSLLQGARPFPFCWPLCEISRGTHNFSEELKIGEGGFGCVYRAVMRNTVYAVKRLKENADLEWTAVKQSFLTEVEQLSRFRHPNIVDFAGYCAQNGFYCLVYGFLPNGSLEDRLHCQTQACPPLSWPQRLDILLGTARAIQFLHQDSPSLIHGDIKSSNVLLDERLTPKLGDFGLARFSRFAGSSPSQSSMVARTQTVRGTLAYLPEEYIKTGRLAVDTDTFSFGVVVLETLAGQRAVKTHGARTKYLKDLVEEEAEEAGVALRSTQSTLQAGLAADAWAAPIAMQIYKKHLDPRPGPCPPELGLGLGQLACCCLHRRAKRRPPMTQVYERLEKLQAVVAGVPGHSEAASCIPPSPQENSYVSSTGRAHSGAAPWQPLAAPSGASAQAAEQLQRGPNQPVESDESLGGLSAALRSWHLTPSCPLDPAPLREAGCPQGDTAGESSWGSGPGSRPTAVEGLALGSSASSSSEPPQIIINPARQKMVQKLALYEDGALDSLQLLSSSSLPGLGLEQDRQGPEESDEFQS
UniProt P49759: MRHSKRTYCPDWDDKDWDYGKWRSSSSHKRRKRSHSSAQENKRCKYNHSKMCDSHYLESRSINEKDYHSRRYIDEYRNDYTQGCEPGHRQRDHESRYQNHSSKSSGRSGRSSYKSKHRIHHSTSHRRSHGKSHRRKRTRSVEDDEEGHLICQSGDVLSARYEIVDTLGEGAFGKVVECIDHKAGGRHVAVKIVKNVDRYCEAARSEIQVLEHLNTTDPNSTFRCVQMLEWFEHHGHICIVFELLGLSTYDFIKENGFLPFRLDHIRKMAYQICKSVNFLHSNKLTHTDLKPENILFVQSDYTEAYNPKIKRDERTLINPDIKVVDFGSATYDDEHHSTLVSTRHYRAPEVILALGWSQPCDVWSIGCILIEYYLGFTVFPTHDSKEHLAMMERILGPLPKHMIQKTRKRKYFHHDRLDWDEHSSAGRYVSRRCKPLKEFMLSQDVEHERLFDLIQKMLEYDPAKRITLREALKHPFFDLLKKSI

log2 ratio of iodoacetamide-alkyne labeling, inactive:
AARS C723 (UniProt P49588) 0.124
IDH3A C127 (UniProt P50213) 0.195
MAP1B C73 (UniProt P46821) -0.0781
UTRN C2185 (UniProt P46939) 0.0765
CAPZB C36 (UniProt P47756) -0.0475
UniProt P49841_C199 0.119
RANGAP1 C274 (UniProt P46060) 0.0539
CCT3 C398 (UniProt P49368) 0.125
AARS C773 (UniProt P49588) 0.295
IDH2 C418 (UniProt P48735) -0.0349
GALK1 C170 (UniProt P51570) -0.321
HCFC1 C1895 (UniProt P51610) 0.228
FASN C1448 (UniProt P49327) 0.102
UniProt P45985_C246 -0.0533
GALK1 C182 (UniProt P51570) -0.321
RPL34 C46 (UniProt P49207) 0.227
FASN C313 (UniProt P49327) 0.262
MAP1B C1228 (UniProt P46821) 0.344
PCYT1A C37 (UniProt P49585) 0.122
MAP1B C190 (UniProt P46821) 0.119
VDAC2 C76 (UniProt P45880) 0.185
FXR2 C270 (UniProt P51116) 0.238
NT5C2 C181 (UniProt P49902) -0.0751
IDH2 C154 (UniProt P48735) 0.153
LIMS1 C138 (UniProt P48059) 0.226
IRAK1 C620 (UniProt P51617) 0.0906
VDAC2 C13 (UniProt P45880) 0.158
CCT8 C244 (UniProt P50990) 0.289
LIG3 C929 (UniProt P49916) 0.316
CLK1 C200 (UniProt P49759) 0.264
MCM2 C315 (UniProt P49736) 0.272
DUSP3 C171 (UniProt P51452) 0.358
RANBP2 C188 (UniProt P49792) 0.107
UniProt P49459_C152 0.143
NAMPT C401 (UniProt P43490) 0.321
ARCN1 C441 (UniProt P48444) 0.0745
IREB2 C137 (UniProt P48200) 0.432

Quoted at random: two records from the list
log2 ratio of iodoacetamide-alkyne labeling, inactive:
AARS C723 (UniProt P49588) 0.124
VDAC2 C76 (UniProt P45880) 0.185

Reference: the supplement of paper PMC11006884
